Test results taken from patent US12305185B2, “Expression vector and method” (MOUNT SPEC I[…] LTD, priority 2018, dated 2025).
At least one structure is not confirmed: it was looked up by name or label, or the drawing left a doubt.

Test system: aRPE-19 human retinal pigmented epithelial cell line
Test: Activation and deactivation of vector constructs containing luciferase (Nano-Glo luminescence assay)
Format: cell-based
Details: aRPE-19 cells transfected with Tet or Cu regulated luciferase vector, luminescence on day 7
Experimental: ARPE-19 cells were seeded as described above. 12-24 hours later, cells were transfected with pAAV-LTetL-luc and pAAV-LCuL-luc. Media was replaced the next day and doxycycline or cumate was added to a subset of cells (FIG. 7). The media from the cells were assayed for the expression of marker gene, luciferase, using the Nano-Glo Luciferase assay on day 4 after having a media change on day 3. The Nano-Glow luciferase assay was performed as described above.
Following the luciferase assay, media was changed in all the wells. A subset of cells activated with doxycycline and cumate were washed to deactivate the vector.
A human retinal pigmented epithelial cell line (aRPE-19) was transfected with vector constructs containing Tet or Cu regulatory sequences driving the expression of the marker gene luciferase. Twenty-four hours later, the cells were treated with or without Tet or Cu and incubated for a further 48 hours before assessing the expression of luciferase. The ability of the system to stop expression of the transgene (Luciferase) was examined by removing the Tet or Cu from the cells by washing prior to re-examining Luciferase expression. Cells without Tet or Cu were used as a control as were cells where Tet or Cu was not removed.

SMILES: CN(C)[C@@H]1C(O)=C(C(N)=O)C(=O)[C@@]2(O)C(O)=C3C(=O)c4c(O)cccc4[C@@](C)(O)[C@H]3C[C@@H]12 [Tet, tetracycline]
- luciferase expression on addition of regulator compound: able to induce significant levels of luciferase expression
